Measurements: PubChem BioAssay AID651768 (National Center for Advancing Translational Sciences (NCATS), 2012)
Out of some 360,000 compounds screened, about 1,700 (0.47%) were called active. The inconclusive results got no clear call from the source; some entries with a clear call stand among them for comparison. The call rests on the fitted dose curve; in most records, active means well fitted inhibition curve with a large enough effect; inconclusive means small, poorly fitted or top-dose-only effect; inactive means no such curve, though single readings can be large or run the other way. A potency beside an inconclusive call is a rough fit, not a confirmed value.
Further: nearly all actives have a fitted effect of over 55% in size.
On the % scale 0 is the no-effect control and ±100 the full control effect; potency means the concentration at half of the fitted maximal effect.

Amino acid sequences for entries named in this document (tags omitted).
UniProt Q14191, whole entry, looked up: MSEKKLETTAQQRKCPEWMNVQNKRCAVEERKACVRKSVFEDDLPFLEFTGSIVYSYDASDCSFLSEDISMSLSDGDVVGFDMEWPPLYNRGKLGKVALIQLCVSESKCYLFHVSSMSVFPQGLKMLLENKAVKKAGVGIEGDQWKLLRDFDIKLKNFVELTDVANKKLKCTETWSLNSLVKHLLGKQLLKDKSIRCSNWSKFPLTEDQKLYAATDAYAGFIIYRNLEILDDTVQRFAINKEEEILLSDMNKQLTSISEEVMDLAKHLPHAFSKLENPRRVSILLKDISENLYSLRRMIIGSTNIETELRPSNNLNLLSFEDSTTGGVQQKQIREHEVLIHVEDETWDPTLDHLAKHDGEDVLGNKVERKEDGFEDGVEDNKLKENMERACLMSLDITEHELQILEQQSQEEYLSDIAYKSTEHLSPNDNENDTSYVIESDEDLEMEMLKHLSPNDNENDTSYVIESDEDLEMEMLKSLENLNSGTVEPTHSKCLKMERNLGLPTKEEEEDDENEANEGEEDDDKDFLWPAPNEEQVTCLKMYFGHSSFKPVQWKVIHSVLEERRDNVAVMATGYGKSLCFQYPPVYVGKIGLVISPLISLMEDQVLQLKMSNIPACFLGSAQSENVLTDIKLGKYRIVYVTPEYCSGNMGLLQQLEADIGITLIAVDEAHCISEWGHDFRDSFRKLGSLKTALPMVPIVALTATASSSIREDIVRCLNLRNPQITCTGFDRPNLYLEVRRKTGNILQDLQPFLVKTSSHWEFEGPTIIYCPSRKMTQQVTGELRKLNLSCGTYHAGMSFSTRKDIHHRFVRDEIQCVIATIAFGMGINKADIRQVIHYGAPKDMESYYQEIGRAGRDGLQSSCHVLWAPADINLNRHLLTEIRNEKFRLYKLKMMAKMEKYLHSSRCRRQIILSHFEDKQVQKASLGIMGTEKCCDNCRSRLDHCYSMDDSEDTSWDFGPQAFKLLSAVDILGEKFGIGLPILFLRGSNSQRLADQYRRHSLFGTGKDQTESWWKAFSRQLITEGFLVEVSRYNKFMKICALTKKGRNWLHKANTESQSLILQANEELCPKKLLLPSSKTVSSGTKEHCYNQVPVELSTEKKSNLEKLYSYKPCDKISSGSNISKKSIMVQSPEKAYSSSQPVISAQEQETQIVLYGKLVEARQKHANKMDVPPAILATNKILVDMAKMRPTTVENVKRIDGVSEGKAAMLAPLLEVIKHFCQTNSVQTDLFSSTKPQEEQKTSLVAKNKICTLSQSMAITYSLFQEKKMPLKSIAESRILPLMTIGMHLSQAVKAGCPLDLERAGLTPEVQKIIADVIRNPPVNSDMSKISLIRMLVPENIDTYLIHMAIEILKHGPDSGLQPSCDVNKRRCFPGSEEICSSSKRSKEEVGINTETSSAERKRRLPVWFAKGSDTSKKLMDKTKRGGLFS

These molecules were tested against Bifunctional 3'-5' exonuclease/ATP-dependent helicase WRN (Homo sapiens) (UniProt Q14191) (assay: qHTS for Inhibitors of WRN Helicase). Conditions: WRN helicase unwinding, fluorescent forked duplex, kinetic; activity change, negative = inhibition: at 114 µM (top of the series) unless noted.
In short: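 Kinetic fluorescence helicase assay: unwinding of a quenched forked DNA duplex (100 nM final) with 2 mM ATP final raises red fluorescence (525/598 nm). Compounds sat 15 min at room temperature with 20 nM WRN beforehand.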
CCOC(=O)c1cc2c(=O)n3ccccc3nc2n(Cc2ccco2)c1=NC(=O)c1cccnc1 was tested, and the Potency was inconclusive: 50.1 µM [inhibitor, partial curve].
For COc1cccc(C=NNc2nnc(NN=Cc3cccc(OC)c3OC)c3ccccc23)c1OC, the Potency was inconclusive: 11.2 µM [inhibitor, partial curve, poor fit].
N#C/C(=C/c1ccc(N2CCCCC2)o1)C(=O)NCCc1c[nH]c2ccccc12 was tested, and the Potency was inconclusive: 25.1 µM [inhibitor, single point].
With CCS(=O)(=O)N1Cc2ccccc2CC1C(=O)Nc1nnc(SCc2ccc(C#N)cc2)s1 (centres undefined) the Potency was inconclusive: 79.4 µM [inhibitor, partial curve].
In the case of NC(=O)C1CCN(C(=S)c2ccc(-c3ccc(Br)cc3)o2)CC1, the Potency is reported as inconclusive: 25.1 µM [inhibitor, single point].
COc1ccccc1/C=c1\sc2nc(-c3ccco3)nn2c1=O was tested, and the Potency was active: 39.8 µM.
With O=C(Cc1ccc(S(=O)(=O)N2CCOCC2)s1)NNC(=O)c1ccccc1Cl the Potency was inconclusive: 17.8 µM [inhibitor, single point].
COc1ccc(S(N)(=O)=O)cc1C(=O)N(C)CC(=O)Nc1ccc(N2CCOCC2)cc1 was tested, and the Potency was inconclusive: 89.1 µM [inhibitor, single point].
In the case of O=C(c1c[nH]c(C(=O)C(Cl)(Cl)Cl)c1)c1c(F)cccc1F, the Potency is reported as inconclusive: 56.2 µM [inhibitor, partial curve].
For CCn1c(SCc2nc3sc(C(=O)O)c(C)c3c(=O)[nH]2)nc2ccccc21, the Potency was active: 20 µM.
For COc1cc2[nH]c(=S)nc(NCc3cccs3)c2cc1OC, the Potency was inconclusive: 15.8 µM [inhibitor, partial curve].
In the case of O=C(O)C1Nc2c(O)cccc2C2C=CCC12 (centres undefined), the Potency is reported as active: 11.2 µM.
In the case of CCn1c(C2CCN(Cc3ccccc3)CC2)n[nH]c1=S, the Potency is reported as inconclusive: 89.1 µM [inhibitor, single point].
With Cc1ccc(S(=O)(=O)NNC2=NCCCCC2)cc1 the Potency was inconclusive: 70.8 µM [inhibitor, single point].
In the case of CC(=O)c1ccc(S(=O)(=O)Nc2cccc(-c3ccc4nncn4n3)c2)cc1, the Potency is reported as inconclusive: 15.8 µM [inhibitor, single point].
S=C(c1ccc2c(c1)OCO2)N1CCN(c2cccc(Cl)c2)CC1 was tested, and the Potency was “inactive”.
With O=C(NCCN1C(=O)S/C(=C\c2cccnc2)C1=O)C1=NN(c2ccccc2)C(=O)CC1 the Potency was inconclusive: 89.1 µM [inhibitor, single point].
With O=c1c(Br)ccc(Br)cc1Br the Potency was active: 10 µM.
With CCNC(=O)C(=O)c1c(-c2ccccc2)[nH]c2ccccc12 the Potency was “inactive”.
In the case of Cc1ccccc1S(=O)(=O)Cc1ccc(C(=O)NC2CCCCC2)o1, the Potency is reported as “inactive”.
C=CC#CC[N+]1(CC#Cc2ccccc2)CCOCC1 was tested, and the Potency was active: 22.4 µM.
With Cc1ccc(-n2cccc2/C=C2\C(=N)N3N=C(C(C)C)SC3=NC2=O)cc1 the Potency was “inactive”.
For COc1cc(/C=N/NC(=O)COc2c(C)cc([N+](=O)[O-])cc2C)ccc1OC(=O)c1ccccc1, the Potency was “inactive”.
In the case of Nc1cc(=O)[nH]c(SCC(=O)Nc2cccc(S(=O)(=O)N3CCCCCC3)c2)n1, the Potency is reported as inconclusive: 35.5 µM [inhibitor, full curve, poor fit].
For C=CCOc1ccc(C2OC34CCCCC3C(C#N)(C#N)C2(C#N)C(=N)O4)cc1 (centres undefined), the Potency was “inactive”.
With COC(=O)CSC1=C(C#N)C(=O)NC2(CCCCC2)S1 the Potency was inconclusive: 44.7 µM [inhibitor, full curve].
With COc1ccc(C2C(O)C(c3c[nH]c4ccccc34)=NN2C(=O)CCl)cc1 (centres undefined) the Potency was inconclusive: 89.1 µM [inhibitor, single point].
With CC1=C(C(=O)c2ccccc2)C(c2ccc(O)cc2)NC(=S)N1 (centres undefined) the Potency was “inactive”.
With COc1cccc(NC(=O)CSc2nc(O)c(C)c(=O)n2-c2ccc(C)cc2)c1 the Potency was inconclusive: 20 µM [inhibitor, single point].
Cc1cccc(-n2nc(C)c3c(C(=O)O)cc(-c4cccs4)nc32)c1 was tested, and the Potency was “inactive”.
In the case of COc1ccc(/C=C2\SC(=S)N(C(Cc3ccccc3)C(=O)O)C2=O)cc1 (centres undefined), the Potency is reported as inconclusive: 28.2 µM [inhibitor, single point].
O=C(c1cccs1)N1CCN(c2nc3c(F)cc(F)cc3s2)CC1 was tested, and the Potency was inconclusive: 17.8 µM [inhibitor, full curve, poor fit].
In the case of O=c1c2ccccc2nc2n1CCC2, the Potency is reported as active: 22.4 µM.
In the case of O=C(O)c1cccc(S(=O)(=O)Nc2ccccc2C(=O)NCCc2ccccc2)c1, the Potency is reported as “inactive”.
For CC(=O)Oc1ccccc1Cn1c(C)c(C(=O)NCc2ccccc2C(F)(F)F)sc1=O, the Potency was “inactive”.
With CCCN1C(=O)/C(=C/c2c(NCCCOC(C)C)nc3c(C)cccn3c2=O)SC1=S the Potency was inconclusive: 35.5 µM [inhibitor, partial curve].
With CC(C)N1C(=O)S/C(=C\c2ccc(-c3ccc(Cl)c(C(=O)O)c3)o2)C1=O the Potency was inconclusive: 35.5 µM [inhibitor, partial curve].
For COC(=O)c1c(NC(=O)CSc2ccccc2N)sc(C)c1C, the Potency was inconclusive: 70.8 µM [inhibitor, single point].
In the case of CCOC(=O)[C@@H]1[C@H]2COc3ccccc3[C@H]2N2C(=O)N(c3ccc(Cl)cc3)C(=O)[C@]12C, the Potency is reported as “inactive”.
With CN(c1ccccc1)S(=O)(=O)c1ccc(C(=O)OCC(=O)NCc2ccco2)cc1 the activity change, negative = inhibition was inconclusive: -36.3% [inhibitor] [at 57.1 µM].
For O=C(Nc1cc2c(oc1=O)CCCC2=O)c1ccc(Cl)cc1, the Potency was active: 13.4 µM.
COc1ccc([N+](=O)[O-])cc1N/C(=N/S(=O)(=O)c1ccccc1)c1ccccc1 was tested, and the Potency was inconclusive: 70.8 µM [inhibitor, single point].
With COc1cc(SC#N)ccc1N=Cc1c(C)[nH]n(-c2cccc3ccccc23)c1=O the Potency was inconclusive: 35.5 µM [inhibitor, partial curve].
Cc1ccc2c(Cl)c(C(=O)NC3CC3)sc2c1 was tested, and the Potency was “inactive”.
COc1ccc(/C=N/NC(=O)c2cccnc2)cc1COc1ccc([N+](=O)[O-])c(C)c1 was tested, and the Potency was “inactive”.
With COc1cccc(/C(O)=C2/C(=O)C(=O)N(Cc3ccco3)C2c2ccncc2)c1 (centres undefined) the Potency was “inactive”.
For C(=N\Nc1nn2cnnc2c2ccccc12)/c1ccco1, the Potency was inconclusive: 44.7 µM [inhibitor, partial curve].
C=CCn1c(SCC(=O)c2ccc(CNC(C)=O)o2)nc2scc(C3CC3)c2c1=O was tested, and the Potency was inconclusive: 44.7 µM [inhibitor, partial curve].
COc1ccccc1NS(=O)(=O)c1cc(NC(=O)c2sccc2C)ccc1N1CCCC1 was tested, and the Potency was inconclusive: 22.4 µM [inhibitor, single point].
With CCC(=O)Nc1nnc(SCC(=O)Nc2ccc3c(c2)OCO3)s1 the Potency was inconclusive: 89.1 µM [inhibitor, single point].
With O=C(CN1CCN(Cc2ccc(Cl)cc2)CC1)N/N=C/c1cccs1 the Potency was inconclusive: 8.91 µM [inhibitor, full curve, poor fit].
For COc1ccc(Cl)cc1NC(=O)CCS(=O)(=O)c1ccc(Br)cc1, the Potency was active: 44.7 µM.
In the case of COC(=O)c1cc(NC(=O)Cc2cccs2)cc(C(=O)OC)c1, the Potency is reported as inconclusive: 56.2 µM [inhibitor, partial curve].
COc1ccc(OC)c(NC(=O)COC(=O)c2cc3c(s2)CCC3)c1 was tested, and the Potency was active: 23.8 µM.
O=C(CCN1C(=O)C2C3C=CC(C3)C2C1=O)Nc1nccs1 (centres undefined) was tested, and the Potency was “inactive”.
With COc1ccc2cc(C(=O)CS(=O)(=O)c3ccccc3)c(=O)oc2c1 the Potency was “inactive”.
With O=C(O)Cn1c(SCCOc2ccc(Cl)cc2)nc2ccccc21 the Potency was inconclusive: 10 µM [inhibitor, full curve, poor fit].
In the case of NC1=NC(=Nc2cccc(S(N)(=O)=O)c2)c2ccccc21, the Potency is reported as “inactive”.
For O=C(O)/C(=C\c1ccc(-c2ccc(F)cc2)o1)c1ccccc1, the Potency was inconclusive: 56.2 µM [inhibitor, partial curve].
For COc1ccc(-c2ccc(SCC(=O)c3cccs3)nn2)cc1OC, the Potency was inconclusive: 39.8 µM [inhibitor, single point].
For CSc1ccc(C=NNc2ccc(S(=O)(=O)Nc3ccccc3C(=O)O)cc2[N+](=O)[O-])cc1, the Potency was inconclusive: 79.4 µM [inhibitor, partial curve].
For CC(C)Cn1c(N)c(C(=O)COC(=O)C2Cc3ccccc3CN2S(C)(=O)=O)c(=O)n(C)c1=O (centres undefined), the Potency was inconclusive: 89.1 µM [inhibitor, single point].
With Cc1ccc(S(=O)(=O)CC(=O)Nc2nc(-c3ccccc3)cs2)cc1 the activity change, negative = inhibition was inconclusive: -39.8% [inhibitor] [at 57.1 µM].
COc1cc(NC(=O)C/C(C)=N/NC(=O)c2ccccn2)c(OC)cc1Cl was tested, and the Potency was inconclusive: 25.1 µM [inhibitor, single point].
With O=C(N/N=C\c1ccc(OC(=O)c2cccs2)cc1)c1ccc(Cl)cc1 the activity change, negative = inhibition was inactive: -10.2% [at 11.6 µM].
In the case of Cc1cc(C)c2c(=N)c3ccccc3n(CCCCCCCCn3c4ccccc4c(=N)c4c(C)cc(C)nc43)c2n1, the Potency is reported as active: 50.1 µM.
CCOc1ccc(NC(=O)CN(C)C(=O)c2ccccc2OCc2cccc(C)c2)cc1OCC was tested, and the Potency was inconclusive: 17.8 µM [inhibitor, single point].
With Nc1[nH]n2c(=O)c3c(nc2c1N=Nc1ccccc1)CCCC3 the Potency was inconclusive: 56.2 µM [inhibitor, partial curve].
COc1cc(Cl)ccc1OCc1cc(C(=O)NC2CCc3ccccc32)no1 (centres undefined) was tested, and the Potency was inconclusive: 22.4 µM [inhibitor, full curve, poor fit].
